Results on 7 molecules are retold here after article PMC7687062.

The chains behind the UniProt entries cited, without tags or fusion partners. Where a name states a change or a piece, a line headed by the entry shows the natural chain unless it says otherwise. Residues count along the entry.
UniProt P70211, residues 26-1447: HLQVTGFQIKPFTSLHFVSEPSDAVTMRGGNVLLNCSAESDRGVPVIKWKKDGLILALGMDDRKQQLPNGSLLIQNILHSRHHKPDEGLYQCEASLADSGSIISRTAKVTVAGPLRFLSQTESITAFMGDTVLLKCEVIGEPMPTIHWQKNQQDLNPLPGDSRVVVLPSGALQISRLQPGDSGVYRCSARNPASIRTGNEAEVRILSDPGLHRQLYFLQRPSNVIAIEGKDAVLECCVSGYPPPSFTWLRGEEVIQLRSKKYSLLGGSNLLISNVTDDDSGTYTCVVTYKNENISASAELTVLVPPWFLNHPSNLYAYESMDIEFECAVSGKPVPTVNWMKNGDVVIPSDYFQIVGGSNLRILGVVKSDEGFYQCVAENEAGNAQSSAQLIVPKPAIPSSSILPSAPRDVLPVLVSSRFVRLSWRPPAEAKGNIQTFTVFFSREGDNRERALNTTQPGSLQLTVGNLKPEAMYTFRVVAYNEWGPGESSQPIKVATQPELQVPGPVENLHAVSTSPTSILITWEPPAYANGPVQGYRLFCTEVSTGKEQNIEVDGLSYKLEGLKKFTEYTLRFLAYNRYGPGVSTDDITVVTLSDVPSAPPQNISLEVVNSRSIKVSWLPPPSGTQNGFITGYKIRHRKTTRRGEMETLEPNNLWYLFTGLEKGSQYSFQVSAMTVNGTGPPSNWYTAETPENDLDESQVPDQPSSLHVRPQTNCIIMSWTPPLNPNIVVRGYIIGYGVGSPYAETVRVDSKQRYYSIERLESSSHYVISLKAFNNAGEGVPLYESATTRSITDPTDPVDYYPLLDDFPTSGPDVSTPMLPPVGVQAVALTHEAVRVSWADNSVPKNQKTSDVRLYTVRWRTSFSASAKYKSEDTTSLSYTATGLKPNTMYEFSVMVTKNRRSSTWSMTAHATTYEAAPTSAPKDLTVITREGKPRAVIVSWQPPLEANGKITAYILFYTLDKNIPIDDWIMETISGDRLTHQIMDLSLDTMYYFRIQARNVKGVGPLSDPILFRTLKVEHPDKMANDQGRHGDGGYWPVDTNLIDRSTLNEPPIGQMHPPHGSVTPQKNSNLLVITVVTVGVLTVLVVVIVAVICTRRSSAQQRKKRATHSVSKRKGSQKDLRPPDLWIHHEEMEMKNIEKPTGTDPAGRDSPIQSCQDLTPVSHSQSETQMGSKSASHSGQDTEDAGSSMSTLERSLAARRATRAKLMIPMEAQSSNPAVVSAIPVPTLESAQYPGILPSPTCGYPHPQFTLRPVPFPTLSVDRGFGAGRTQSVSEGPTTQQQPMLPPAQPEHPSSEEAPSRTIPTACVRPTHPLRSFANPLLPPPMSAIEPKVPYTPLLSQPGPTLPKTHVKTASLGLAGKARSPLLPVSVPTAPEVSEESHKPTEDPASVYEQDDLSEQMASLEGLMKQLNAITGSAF
UniProt E9Q4K7: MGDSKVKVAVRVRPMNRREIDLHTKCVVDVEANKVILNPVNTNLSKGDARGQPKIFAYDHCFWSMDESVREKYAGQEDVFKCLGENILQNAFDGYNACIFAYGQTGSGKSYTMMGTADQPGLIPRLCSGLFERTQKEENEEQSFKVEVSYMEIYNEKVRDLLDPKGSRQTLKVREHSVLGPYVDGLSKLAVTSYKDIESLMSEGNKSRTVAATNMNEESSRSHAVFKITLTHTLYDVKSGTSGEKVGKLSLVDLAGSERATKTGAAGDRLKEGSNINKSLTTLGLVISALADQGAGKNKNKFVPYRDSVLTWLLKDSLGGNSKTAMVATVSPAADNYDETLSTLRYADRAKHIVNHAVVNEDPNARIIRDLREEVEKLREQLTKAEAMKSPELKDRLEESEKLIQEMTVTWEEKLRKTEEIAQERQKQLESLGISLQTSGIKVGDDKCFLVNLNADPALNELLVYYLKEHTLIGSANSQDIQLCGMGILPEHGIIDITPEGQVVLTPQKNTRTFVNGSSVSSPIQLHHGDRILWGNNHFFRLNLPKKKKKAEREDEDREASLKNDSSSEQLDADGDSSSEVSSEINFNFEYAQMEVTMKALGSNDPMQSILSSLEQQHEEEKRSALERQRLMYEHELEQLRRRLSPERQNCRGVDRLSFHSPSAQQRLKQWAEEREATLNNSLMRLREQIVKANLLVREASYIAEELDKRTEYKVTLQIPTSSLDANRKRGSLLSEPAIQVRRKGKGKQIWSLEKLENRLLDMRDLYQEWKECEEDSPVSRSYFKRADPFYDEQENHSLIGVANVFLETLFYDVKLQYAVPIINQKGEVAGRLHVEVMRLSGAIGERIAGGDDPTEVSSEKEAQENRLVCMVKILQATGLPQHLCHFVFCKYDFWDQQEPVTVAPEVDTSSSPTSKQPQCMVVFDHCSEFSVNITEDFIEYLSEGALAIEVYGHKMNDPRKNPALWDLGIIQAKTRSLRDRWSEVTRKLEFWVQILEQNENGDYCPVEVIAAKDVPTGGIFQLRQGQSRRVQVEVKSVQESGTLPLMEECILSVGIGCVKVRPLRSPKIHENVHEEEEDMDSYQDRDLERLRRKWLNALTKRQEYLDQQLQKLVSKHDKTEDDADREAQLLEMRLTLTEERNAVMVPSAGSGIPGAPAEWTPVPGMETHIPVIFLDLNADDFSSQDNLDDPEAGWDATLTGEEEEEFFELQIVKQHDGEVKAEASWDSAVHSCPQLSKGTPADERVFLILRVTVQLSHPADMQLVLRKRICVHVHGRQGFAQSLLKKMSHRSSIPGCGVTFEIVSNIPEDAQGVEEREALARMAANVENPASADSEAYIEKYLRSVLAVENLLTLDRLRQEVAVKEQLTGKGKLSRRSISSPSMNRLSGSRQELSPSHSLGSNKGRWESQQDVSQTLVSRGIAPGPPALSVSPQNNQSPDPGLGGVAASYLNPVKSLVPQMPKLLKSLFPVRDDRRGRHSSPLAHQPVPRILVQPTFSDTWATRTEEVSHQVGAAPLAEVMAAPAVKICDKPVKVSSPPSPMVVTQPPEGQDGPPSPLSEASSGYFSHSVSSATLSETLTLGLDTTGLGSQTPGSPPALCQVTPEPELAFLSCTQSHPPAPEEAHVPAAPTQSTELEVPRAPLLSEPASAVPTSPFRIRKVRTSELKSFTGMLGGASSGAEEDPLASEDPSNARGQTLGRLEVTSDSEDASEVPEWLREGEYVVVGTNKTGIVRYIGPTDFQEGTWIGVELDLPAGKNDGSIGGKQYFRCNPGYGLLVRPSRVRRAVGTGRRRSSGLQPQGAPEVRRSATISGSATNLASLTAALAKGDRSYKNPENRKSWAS

Results are given in words; binding and its absence hold for the method and conditions named. In cells and extracts the contact can be indirect. Some results given as binding are weak or reduced against the parent protein; the word gives no strength. For some assays here: Where a sequence is shown, tags or fusion partners need not be part of it.

Test [1] concerns the target Myosin X, endogenous in cultured cortical neurons (mouse (endogenous in cultured cortical neurons)) (UniProt F8VQB6). Kind of test: co-IP; endogenous proteins in lysates of cultured mouse cortical neurons treated with vehicle or Netrin-1 (500 ng/ml, 1 h); precipitated with anti-Myo X antibody (said for Fig. 6G); modified RIPA lysis buffer, 4°C, immunoblot. (Immunoblotting shows a protein as a band on a membrane.)

For test [2], the target named is T1, Myc-KIF13B^1-557 (human) (UniProt Q9NQT8).
T1 sequence: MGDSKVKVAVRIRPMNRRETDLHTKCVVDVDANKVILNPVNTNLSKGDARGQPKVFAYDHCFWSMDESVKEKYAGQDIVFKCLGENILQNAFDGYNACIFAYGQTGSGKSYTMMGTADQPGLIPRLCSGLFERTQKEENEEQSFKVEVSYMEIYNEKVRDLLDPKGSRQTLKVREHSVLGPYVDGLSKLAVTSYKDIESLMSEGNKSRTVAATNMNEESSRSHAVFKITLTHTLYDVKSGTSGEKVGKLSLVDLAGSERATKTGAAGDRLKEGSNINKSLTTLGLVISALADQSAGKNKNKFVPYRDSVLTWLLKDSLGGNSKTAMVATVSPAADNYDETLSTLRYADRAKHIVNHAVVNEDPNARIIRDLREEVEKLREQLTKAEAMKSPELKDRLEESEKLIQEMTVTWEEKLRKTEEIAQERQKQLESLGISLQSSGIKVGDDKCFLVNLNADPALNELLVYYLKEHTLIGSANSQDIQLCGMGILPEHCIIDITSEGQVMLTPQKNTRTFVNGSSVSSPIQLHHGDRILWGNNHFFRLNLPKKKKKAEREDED
In words: co-IP; GFP-tagged Myo X constructs coexpressed with Myc-KIF13B or its deletion mutants in HEK293T cells; precipitated with anti-Myc antibody (IgG as control); modified RIPA lysis buffer, 4°C, immunoblot.

Test [3] concerns the target T2, Myc-KIF13B^1532-1826 (human) (UniProt Q9NQT8).
T2 sequence: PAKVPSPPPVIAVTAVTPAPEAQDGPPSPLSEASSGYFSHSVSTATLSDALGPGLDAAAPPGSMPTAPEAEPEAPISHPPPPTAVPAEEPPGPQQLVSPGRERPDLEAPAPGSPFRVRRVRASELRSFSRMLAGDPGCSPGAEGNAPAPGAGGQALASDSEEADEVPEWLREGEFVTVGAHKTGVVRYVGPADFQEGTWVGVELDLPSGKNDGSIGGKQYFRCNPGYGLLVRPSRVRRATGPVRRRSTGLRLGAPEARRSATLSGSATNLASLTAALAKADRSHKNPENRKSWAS
The test is described as above.

Test [4] has as its target T3, Myc-KIF13B^558-1826 (human) (UniProt Q9NQT8).
T3 sequence: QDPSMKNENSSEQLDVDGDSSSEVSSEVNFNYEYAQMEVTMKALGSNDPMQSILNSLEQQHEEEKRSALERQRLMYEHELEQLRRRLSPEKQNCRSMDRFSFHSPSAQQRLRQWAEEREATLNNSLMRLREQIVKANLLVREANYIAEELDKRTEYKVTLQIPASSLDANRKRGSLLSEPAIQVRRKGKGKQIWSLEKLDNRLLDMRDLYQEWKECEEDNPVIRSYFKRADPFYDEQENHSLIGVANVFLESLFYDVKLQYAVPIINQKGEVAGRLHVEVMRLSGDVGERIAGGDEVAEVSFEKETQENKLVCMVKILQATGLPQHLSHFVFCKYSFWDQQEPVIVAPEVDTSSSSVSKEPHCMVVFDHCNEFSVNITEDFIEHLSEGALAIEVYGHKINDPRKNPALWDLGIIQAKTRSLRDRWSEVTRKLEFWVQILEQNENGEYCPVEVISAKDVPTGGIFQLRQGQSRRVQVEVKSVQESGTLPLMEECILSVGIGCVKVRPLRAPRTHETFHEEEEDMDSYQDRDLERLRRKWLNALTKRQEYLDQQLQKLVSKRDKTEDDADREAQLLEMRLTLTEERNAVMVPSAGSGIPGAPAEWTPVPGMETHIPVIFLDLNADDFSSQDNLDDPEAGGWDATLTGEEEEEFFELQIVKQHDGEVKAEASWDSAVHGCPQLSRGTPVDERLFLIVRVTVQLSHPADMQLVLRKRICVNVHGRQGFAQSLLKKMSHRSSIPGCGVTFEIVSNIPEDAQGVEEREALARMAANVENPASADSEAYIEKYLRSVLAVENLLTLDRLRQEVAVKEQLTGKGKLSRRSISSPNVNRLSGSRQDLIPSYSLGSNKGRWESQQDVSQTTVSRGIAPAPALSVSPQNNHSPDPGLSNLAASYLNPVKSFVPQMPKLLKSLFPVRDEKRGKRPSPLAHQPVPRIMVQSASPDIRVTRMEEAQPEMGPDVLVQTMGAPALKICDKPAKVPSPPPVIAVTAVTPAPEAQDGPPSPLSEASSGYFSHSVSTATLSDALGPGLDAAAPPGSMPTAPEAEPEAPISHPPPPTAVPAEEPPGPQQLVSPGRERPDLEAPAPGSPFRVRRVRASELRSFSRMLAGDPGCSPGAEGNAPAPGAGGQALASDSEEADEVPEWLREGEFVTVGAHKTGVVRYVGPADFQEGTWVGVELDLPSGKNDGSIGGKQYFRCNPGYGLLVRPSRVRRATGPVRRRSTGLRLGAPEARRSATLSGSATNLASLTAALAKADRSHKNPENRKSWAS
The description is as above.

The target of test [5] is T4, Myc-KIF13B^990-1826 (human) (UniProt Q9NQT8).
T4 sequence: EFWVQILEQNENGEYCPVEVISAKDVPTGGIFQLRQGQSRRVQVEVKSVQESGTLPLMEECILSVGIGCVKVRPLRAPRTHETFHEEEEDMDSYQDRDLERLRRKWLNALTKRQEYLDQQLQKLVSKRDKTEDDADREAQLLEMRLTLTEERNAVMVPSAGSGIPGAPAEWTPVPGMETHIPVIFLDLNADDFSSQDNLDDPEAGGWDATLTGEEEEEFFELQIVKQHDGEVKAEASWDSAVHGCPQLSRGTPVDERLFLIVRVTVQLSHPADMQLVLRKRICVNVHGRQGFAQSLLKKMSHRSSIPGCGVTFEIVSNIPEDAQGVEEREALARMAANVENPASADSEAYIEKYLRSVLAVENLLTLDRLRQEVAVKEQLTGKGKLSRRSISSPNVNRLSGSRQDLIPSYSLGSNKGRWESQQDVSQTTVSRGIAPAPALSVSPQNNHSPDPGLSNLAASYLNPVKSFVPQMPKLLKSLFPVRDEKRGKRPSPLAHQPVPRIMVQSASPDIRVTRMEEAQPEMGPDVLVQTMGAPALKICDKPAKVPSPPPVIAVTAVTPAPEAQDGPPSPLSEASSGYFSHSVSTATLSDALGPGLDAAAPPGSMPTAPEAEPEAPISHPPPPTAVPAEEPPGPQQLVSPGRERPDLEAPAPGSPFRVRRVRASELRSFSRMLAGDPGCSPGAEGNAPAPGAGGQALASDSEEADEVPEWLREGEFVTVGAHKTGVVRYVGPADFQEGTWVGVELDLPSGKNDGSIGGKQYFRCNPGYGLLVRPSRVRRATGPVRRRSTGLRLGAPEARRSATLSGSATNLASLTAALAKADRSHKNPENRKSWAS
The test is described as above.

For test [6], the target named is T5, GST-KIF13B^1532-1826 fusion protein (human) (UniProt Q9NQT8).
T5 sequence: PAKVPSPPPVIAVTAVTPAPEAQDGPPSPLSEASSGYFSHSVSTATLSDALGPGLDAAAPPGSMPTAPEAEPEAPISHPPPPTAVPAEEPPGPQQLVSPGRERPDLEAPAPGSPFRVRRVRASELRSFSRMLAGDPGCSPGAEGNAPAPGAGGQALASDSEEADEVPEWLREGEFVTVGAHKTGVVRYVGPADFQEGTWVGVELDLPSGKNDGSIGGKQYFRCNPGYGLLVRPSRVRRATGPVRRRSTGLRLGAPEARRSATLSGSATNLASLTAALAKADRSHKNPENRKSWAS
Kind of test: pull-down; GST fusion proteins (2-5 μg) immobilised on glutathione-Sepharose beads, incubated at 4°C overnight with lysates of transfected HEK293 cells (modified RIPA buffer, precleared with GST beads); immunoblot; only the target purified.

Turning to “Deleted in Colorectal Cancer (DCC), endogenous in cultured cortical neurons (from UniProt P70211 26-1447) (receptor)”, the binding entry in test [1] is “binds”. As to “GFP-hMyoX (GFP-tagged headless MyoX), expressed in HEK293 cells (from UniProt F8VQB6 860-2062) (domain or fragment)”, the binding entry was “no binding” in test [2]; “binds” in test [3]; “binds” in test [4]; “binds” in test [5]; “binds” in test [6]. Consider “GFP-hMyoX (KK1225/6AA) (from UniProt F8VQB6 860-2062) (domain or fragment)”, for which the binding entry in test [6] is recorded as “binds”. Consider “GFP-hMyoX^ΔPH2 (from UniProt F8VQB6 860-2062) (domain or fragment)”, for which, in test [6], the binding result is recorded as “no binding”. On the same count and under the same terms, for “GFP-hMyoX^ΔPH3 (from UniProt F8VQB6 860-2062) (domain or fragment)” the value was “no binding”. “KIF13B, endogenous in cultured cortical neurons (from UniProt E9Q4K7 1-1843)”: in test [1], the binding result was “binds”.

B1: GFP-Myo X^Ferm (domain or fragment, UniProt F8VQB6 1704-2048)
chain: MTSTVYCHGGGSCKITINSHTTAGEVVEKLIRGLAMEDSRNMFALFEYNGQVDKAIESRTIVADVLAKFEKLAATSEAGDAPWKFYFKLYCFLDTDSMPKDSVEFAFMFEQAHEAVIHGHHPAPEESLQVLAALRLQYLQGDYTPHTSIPPLEEVYSVQRLRARISQSTKTFTPYERLEKRRTSFLEGTLRRSFRTGSVVRQKAEEEQMLDMWIKEEVCSARTSIIDKWKKLQGMNQEQAMAKYMALIKEWPGYGSTLFDVECKEGGFPQELWLGVSADAVSVYKRGEGKPLEVFQYEHILSFGAPLANTYKIVVDERELLFETSEVVDVAKLMKAYISMIVKKR
Turning to B1, the binding entry in test [6] is reported as “no binding”.
